{"sequences": {"note": "By UniProt entry, the sequences of proteins in these tests, tags left out. Where a name states a change or a piece, a line headed by the entry shows the natural chain unless it says otherwise.", "UniProt P55210": "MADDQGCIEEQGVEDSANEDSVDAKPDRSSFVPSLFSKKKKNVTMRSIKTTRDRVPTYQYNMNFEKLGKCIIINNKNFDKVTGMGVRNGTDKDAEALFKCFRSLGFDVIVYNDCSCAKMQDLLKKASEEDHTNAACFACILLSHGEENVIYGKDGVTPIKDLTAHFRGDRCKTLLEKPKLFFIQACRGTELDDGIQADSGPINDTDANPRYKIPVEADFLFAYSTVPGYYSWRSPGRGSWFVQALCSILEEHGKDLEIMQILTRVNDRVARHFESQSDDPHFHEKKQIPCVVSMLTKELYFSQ", "UniProt O15392": "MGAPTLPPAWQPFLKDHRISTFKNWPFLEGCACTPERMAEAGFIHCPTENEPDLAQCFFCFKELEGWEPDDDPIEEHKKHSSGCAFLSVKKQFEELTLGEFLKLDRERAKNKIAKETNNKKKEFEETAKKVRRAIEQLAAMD"}, "source": "patent US20030087319A1", "about": "(published 2003)", "molecular_target": "recombinant active caspase-7 (PharMingen) (UniProt P55210)", "assay": "in vitro binding, 35S-labeled survivin with recombinant active caspase-7, immunoprecipitation with caspase-specific antibody, SDS-PAGE, autoradiography", "note": "These are yes or no findings as the source states them, for the method shown. A result given as binding can be weak or reduced; the word gives no strength."}
{"substance": "survivin (35[S]-methionine-labeled, in vitro translated) (from UniProt O15392 1-142)", "values": [{"measurement": "binding", "result": "binds"}]}
